In the supplement of paper PMC4604168 (melanoma cell lines):
This is one part of the list. Single values are uncertain, as repeats are few or missing.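 The apoptosis fraction was the count of cleaved-PARP antibody-stained nuclei relative to all DNA-stained nuclei, imaged in 1,536-well plates. Screening doses were set so most cells survived, and baseline and induced cleaved-PARP levels vary greatly across cell lines.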

Experiments:
Experiment in all cases: cleaved PARP positive nuclei fraction relative to DMSO control; melanoma cells; higher = more apoptosis
Details in all cases: library dose: low library concentration; 72 h
MZ2-MEL = system: MZ2-MEL
MeWo = system: MeWo
RPMI7951 = system: RPMI7951
RVH-421 = system: RVH-421
SkMel28 = system: SkMel28
SkMel2 = system: SkMel2
SkMel30 = system: SkMel30
UACC62 = system: UACC62
SkMel5 = system: SkMel5
UACC257 = system: UACC257

Row | SMILES | cleaved PARP positive nuclei fraction (MZ2-MEL) [%] | cleaved PARP positive nuclei fraction (MeWo) [%] | cleaved PARP positive nuclei fraction (RPMI7951) [%] | cleaved PARP positive nuclei fraction (RVH-421) [%] | cleaved PARP positive nuclei fraction (SkMel28) [%] | cleaved PARP positive nuclei fraction (SkMel2) [%] | cleaved PARP positive nuclei fraction (SkMel30) [%] | cleaved PARP positive nuclei fraction (UACC62) [%] | cleaved PARP positive nuclei fraction (SkMel5) [%] | cleaved PARP positive nuclei fraction (UACC257) [%]
1 | C#Cc1cccc(Nc2ncnc3cc(OCCOC)c(OCCOC)cc23)c1 [erlotinib] + Cc1nc(Nc2ncc(C(=O)Nc3c(C)cccc3Cl)s2)cc(N2CCN(CCO)CC2)n1 [dasatanib] (first compound 0.8 µM, partner dose 0.004 µM) | 133 | 108 | 37.6 | 184 | 79.2 | 46.8 | 71.9 | 191 |  | 
2 | Cc1cc(N2CCOCC2)cc2[nH]c(-c3c(NC[C@@H](O)c4cccc(Cl)c4)cc[nH]c3=O)nc12 + CCc1ccc(CCOc2ccc(CC3SC(=O)NC3=O)cc2)nc1 [pioglitazone] (first compound 0.2 µM, partner dose 2 µM) | 94.4 | 37.7 | 67.8 | 42.5 | 156 |  | 45.3 | 130 | 222 | 94.7
3 | CC(=O)c1c(C)c2cnc(Nc3ccc(N4CCNCC4)cn3)nc2n(C2CCCC2)c1=O [palbociclib] + Cn1nnc2c(C(N)=O)ncn2c1=O [temozolomide] (first compound 0.04 µM, partner dose 2 µM) | 26.1 | 43.3 | 135 | 84.8 | 69.6 | 79.2 | 88.3 | 138 |  | 
4 | CC1(C)NC(=O)N(c2ccc([N+](=O)[O-])c(C(F)(F)F)c2)C1=O [nilutamide] + CC(C)CCN1c2nc(Nc3cc(F)c(O)c(F)c3)ncc2N(C)C(=O)C1C [BID1870] (first compound 1 µM, partner dose 0.2 µM) | 54.8 | 56.1 | 82.8 | 109 | 95.3 |  | 30 | 107 | 72.5 | 43.2
5 | C#Cc1cccc(Nc2ncnc3cc(OCCOC)c(OCCOC)cc23)c1 [erlotinib] + Cn1c(Nc2ccc(C(F)(F)F)cc2)nc2cc(Oc3ccnc(-c4ncc(C(F)(F)F)[nH]4)c3)ccc21 [CHIR265] (first compound 0.8 µM, partner dose 0.08 µM) | 50 | 83.1 | 52.8 | 246 | 137 | 106 | 154 | 264 |  | 
6 | Clc1ccc(Nc2nnc(Cc3ccncc3)c3ccccc23)cc1 [vatalanib] + Nc1cccc2c1CN(C1CCC(=O)NC1=O)C2=O [lenalidomide] (first compound 2 µM, partner dose 1 µM) | 156 | 330 | 90.1 | 84.6 | 74 | 27.6 | 26.3 | 70.9 |  | 
7 | OCc1c[nH]c2ccccc12 [Indole-3-carbinol] + Cc1nc(Nc2ncc(C(=O)Nc3c(C)cccc3Cl)s2)cc(N2CCN(CCO)CC2)n1 [dasatanib] (first compound 0.8 µM, partner dose 0.004 µM) | 184 | 92.9 | 219 | 147 | 106 | 79.1 | 36.2 | 225 |  | 
8 | C#Cc1cccc(Nc2ncnc3cc(OCCOC)c(OCCOC)cc23)c1 [erlotinib] + Cn1nnc2c(C(N)=O)ncn2c1=O [temozolomide] (first compound 0.8 µM, partner dose 2 µM) | 98.2 | 159 | 35 | 74.8 | 99.5 | 100 | 96.7 | 81.8 |  | 
9 | CC1(C)NC(=O)N(c2ccc([N+](=O)[O-])c(C(F)(F)F)c2)C1=O [nilutamide] + N#Cc1c(O)c2c(-c3ccc(-c4ccccc4O)cc3)csc2[nH]c1=O [A769662] (first compound 1 µM, partner dose 2 µM) | 22.1 | 49.9 | 221 | 74.8 | 141 |  | 180 | 93.5 | 81.8 | 105
10 | Clc1ccc(Nc2nnc(Cc3ccncc3)c3ccccc23)cc1 [vatalanib] + Cn1c(Nc2ccc(C(F)(F)F)cc2)nc2cc(Oc3ccnc(-c4ncc(C(F)(F)F)[nH]4)c3)ccc21 [CHIR265] (first compound 2 µM, partner dose 0.08 µM) | 144 | 164 | 215 | 92.4 | 193 | 148 | 44.6 | 109 |  | 
11 | Cn1c(Nc2ccc(C(F)(F)F)cc2)nc2cc(Oc3ccnc(-c4ncc(C(F)(F)F)[nH]4)c3)ccc21 + COCC[n+]1c2c(n(Cc3cnccn3)c1C)C(=O)c1ccccc1C2=O [YM155] (first compound 0.08 µM, partner dose 0.0004 µM) | 144 | 134 | 97.5 | 51.1 | 118 | 466 | 267 | 95.5 |  | 
12 | C#Cc1cccc(Nc2ncnc3cc(OCCOC)c(OCCOC)cc23)c1 [erlotinib] + O=c1cc(-c2cccc3c2Sc2ccccc2S3)oc(N2CCOCC2)c1 [KU55933] (first compound 0.8 µM, partner dose 1 µM) | 234 | 115 | 44.7 | 55 | 71.2 |  | 49 | 77.9 | 60.2 | 147
13 | C[C@]1(c2nc3c(C(N)=O)cccc3[nH]2)CCCN1 [Veliparib] + Cn1nnc2c(C(N)=O)ncn2c1=O [temozolomide] (first compound 1.4 µM, partner dose 2 µM) | 83.5 | 175 | 119 | 101 | 239 | 73.2 | 69.4 | 258 |  | 
14 | C[C@]1(c2nc3c(C(N)=O)cccc3[nH]2)CCCN1 [Veliparib] + Oc1cc(-c2nc(-c3ccccc3)[nH]c2-c2ccncc2)ccc1Cl [L779450] (first compound 1.4 µM, partner dose 0.2 µM) | 108 | 31.5 | 41 | 61.4 | 120 |  | 30.5 | 271 | 20.8 | 79.3
15 | Nc1cccc2c1CN(C1CCC(=O)NC1=O)C2=O (stereo unspecified) [lenalidomide] + CCCCCCCCCCCC1=C(O)C(=O)C=C(O)C1=O [Embelin] (first compound 1 µM, partner dose 1.2 µM) | 110 | 45.6 | 139 | 87.9 | 48.2 |  | 82 | 93.2 | 78.8 | 63.9
16 | CC(=O)c1c(C)c2cnc(Nc3ccc(N4CCNCC4)cn3)nc2n(C2CCCC2)c1=O [palbociclib] + COCC[n+]1c2c(n(Cc3cnccn3)c1C)C(=O)c1ccccc1C2=O [YM155] (first compound 0.04 µM, partner dose 0.0004 µM) | 144 | 17 | 121 | 97 | 106 | 105 | 104 | 134 |  | 
17 | CC(=O)c1c(C)c2cnc(Nc3ccc(N4CCNCC4)cn3)nc2n(C2CCCC2)c1=O [palbociclib] + C#Cc1cccc(Nc2ncnc3cc(OCCOC)c(OCCOC)cc23)c1 [erlotinib] (first compound 0.04 µM, partner dose 0.8 µM) | 107 | 90.2 | 122 | 89.3 | 124 | 134 | 35.3 | 271 |  | 
18 | O=C(Nc1cccc(Cl)c1)Nc1ncc(CCNc2ncnc3ccsc23)s1 + Cc1cc([N+](=O)[O-])ccc1NS(=O)(=O)c1cc(Cl)ccc1Cl [FH535] (first compound 0.0008 µM, partner dose 1 µM) | 70.4 | 161 | 76 | 119 | 194 |  | 29.2 | 158 | 148 | 79.3
19 | Cn1nnc2c(C(N)=O)ncn2c1=O [temozolomide] + O=c1cc(-c2cccc3c2Sc2ccccc2S3)oc(N2CCOCC2)c1 [KU55933] (first compound 2 µM, partner dose 1 µM) | 53.8 | 106 | 71.5 | 120 | 102 |  | 211 | 44.2 | 58.5 | 101
20 | COc1cc(Nc2ncc(F)c(Nc3ccc4c(n3)NC(=O)C(C)(C)O4)n2)cc(OC)c1OC [Tamatinib] + Cn1cc(/C=C2\C(=O)Nc3cccnc32)c2ccccc21 [GW441756] (first compound 0.4 µM, partner dose 0.4 µM) | 129 | 118 | 52.9 | 100 | 239 |  | 25.5 | 64 | 135 | 71.4
21 | Cn1c(Nc2ccc(C(F)(F)F)cc2)nc2cc(Oc3ccnc(-c4ncc(C(F)(F)F)[nH]4)c3)ccc21 + Cn1cc(/C=C2\C(=O)Nc3cccnc32)c2ccccc21 [GW441756] (first compound 0.08 µM, partner dose 0.4 µM) | 118 | 285 | 73.8 | 174 | 116 |  | 49.2 | 73.1 | 71.3 | 295
22 | CC(C)(C)c1cnc(CSc2cnc(NC(=O)C3CCNCC3)s2)o1 + COc1ccc(COc2ccc(Cc3cnc(N)nc3N)cc2OC)cc1 [GW2580] (first compound 0.01 µM, partner dose 1 µM) | 329 | 215 | 50.1 | 68.4 | 107 |  | 99.2 | 28 | 220 | 42.9
23 | COc1cc(Nc2ncc(F)c(Nc3ccc4c(n3)NC(=O)C(C)(C)O4)n2)cc(OC)c1OC [Tamatinib] + COc1ccc2c(c1)CCC1C2CCC2(C)C(NCCCCCCN3C(=O)C=CC3=O)CCC12 [U73122] (first compound 0.4 µM, partner dose 0.4 µM) | 125 | 58.1 | 43.9 | 44.3 | 131 |  | 24.1 | 233 | 57.6 | 188

Laid out differently: entries from further up
Row	SMILES	cleaved PARP positive nuclei fraction (MZ2-MEL) [%]	cleaved PARP positive nuclei fraction (MeWo) [%]	cleaved PARP positive nuclei fraction (RPMI7951) [%]	cleaved PARP positive nuclei fraction (RVH-421) [%]	cleaved PARP positive nuclei fraction (SkMel28) [%]	cleaved PARP positive nuclei fraction (SkMel2) [%]	cleaved PARP positive nuclei fraction (SkMel30) [%]	cleaved PARP positive nuclei fraction (UACC62) [%]	cleaved PARP positive nuclei fraction (SkMel5) [%]	cleaved PARP positive nuclei fraction (UACC257) [%]
5	C#Cc1cccc(Nc2ncnc3cc(OCCOC)c(OCCOC)cc23)c1 [erlotinib] + Cn1c(Nc2ccc(C(F)(F)F)cc2)nc2cc(Oc3ccnc(-c4ncc(C(F)(F)F)[nH]4)c3)ccc21 [CHIR265] (first compound 0.8 µM, partner dose 0.08 µM)	50	83.1	52.8	246	137	106	154	264		
6	Clc1ccc(Nc2nnc(Cc3ccncc3)c3ccccc23)cc1 [vatalanib] + Nc1cccc2c1CN(C1CCC(=O)NC1=O)C2=O [lenalidomide] (first compound 2 µM, partner dose 1 µM)	156	330	90.1	84.6	74	27.6	26.3	70.9		
9	CC1(C)NC(=O)N(c2ccc([N+](=O)[O-])c(C(F)(F)F)c2)C1=O [nilutamide] + N#Cc1c(O)c2c(-c3ccc(-c4ccccc4O)cc3)csc2[nH]c1=O [A769662] (first compound 1 µM, partner dose 2 µM)	22.1	49.9	221	74.8	141		180	93.5	81.8	105
10	Clc1ccc(Nc2nnc(Cc3ccncc3)c3ccccc23)cc1 [vatalanib] + Cn1c(Nc2ccc(C(F)(F)F)cc2)nc2cc(Oc3ccnc(-c4ncc(C(F)(F)F)[nH]4)c3)ccc21 [CHIR265] (first compound 2 µM, partner dose 0.08 µM)	144	164	215	92.4	193	148	44.6	109		
19	Cn1nnc2c(C(N)=O)ncn2c1=O [temozolomide] + O=c1cc(-c2cccc3c2Sc2ccccc2S3)oc(N2CCOCC2)c1 [KU55933] (first compound 2 µM, partner dose 1 µM)	53.8	106	71.5	120	102		211	44.2	58.5	101
21	Cn1c(Nc2ccc(C(F)(F)F)cc2)nc2cc(Oc3ccnc(-c4ncc(C(F)(F)F)[nH]4)c3)ccc21 + Cn1cc(/C=C2\C(=O)Nc3cccnc32)c2ccccc21 [GW441756] (first compound 0.08 µM, partner dose 0.4 µM)	118	285	73.8	174	116		49.2	73.1	71.3	295
